Some of the results follow. Most entries show no effect beyond the scatter of the controls.
Compound: CN[C@@H]1C[C@H]2O[C@@](C)([C@@H]1OC)n1c3ccccc3c3c4c(c5c6ccccc6n2c5c31)C(=O)NC4 [staurosporine]
Assay: log2 fold change of pooled soluble protein (PISA), ligand vs vehicle (log2 ratio); higher = more thermally stabilized
Details: ligand concentration: 20 uM; assay format: PISA pool 52.9/55.5/58.6 C

Chains of the proteins cited; added tags and fusions are not shown. Lines headed by an entry give the natural chain unless they say otherwise; changes in a name come on top.
UniProt P58929: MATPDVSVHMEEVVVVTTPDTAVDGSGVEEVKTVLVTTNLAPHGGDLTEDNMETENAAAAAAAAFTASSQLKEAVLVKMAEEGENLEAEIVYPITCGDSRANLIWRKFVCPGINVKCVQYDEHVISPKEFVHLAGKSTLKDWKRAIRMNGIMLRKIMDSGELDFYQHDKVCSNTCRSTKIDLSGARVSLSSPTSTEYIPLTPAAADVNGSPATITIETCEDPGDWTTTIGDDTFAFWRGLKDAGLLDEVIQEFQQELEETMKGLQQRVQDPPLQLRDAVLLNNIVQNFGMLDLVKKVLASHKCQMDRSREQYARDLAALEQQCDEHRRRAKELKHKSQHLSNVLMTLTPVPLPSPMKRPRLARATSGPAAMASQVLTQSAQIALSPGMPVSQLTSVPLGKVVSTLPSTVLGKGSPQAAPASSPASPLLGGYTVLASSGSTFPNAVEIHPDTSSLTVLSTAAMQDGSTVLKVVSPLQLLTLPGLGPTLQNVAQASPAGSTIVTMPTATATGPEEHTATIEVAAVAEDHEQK
UniProt P97501: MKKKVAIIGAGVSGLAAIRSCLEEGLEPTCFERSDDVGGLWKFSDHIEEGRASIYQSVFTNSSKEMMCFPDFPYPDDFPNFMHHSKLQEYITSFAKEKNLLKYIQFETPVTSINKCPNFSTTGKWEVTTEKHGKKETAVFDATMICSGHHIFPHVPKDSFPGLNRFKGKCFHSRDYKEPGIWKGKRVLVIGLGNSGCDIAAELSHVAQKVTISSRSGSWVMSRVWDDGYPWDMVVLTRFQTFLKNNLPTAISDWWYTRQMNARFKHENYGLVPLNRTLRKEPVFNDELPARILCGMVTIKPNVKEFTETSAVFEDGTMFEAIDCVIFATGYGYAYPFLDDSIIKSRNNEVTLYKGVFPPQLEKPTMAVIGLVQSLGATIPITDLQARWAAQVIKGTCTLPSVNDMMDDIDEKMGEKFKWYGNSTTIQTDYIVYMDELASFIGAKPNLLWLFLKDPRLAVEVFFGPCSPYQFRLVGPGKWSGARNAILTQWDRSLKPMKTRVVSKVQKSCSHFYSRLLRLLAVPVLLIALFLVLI
UniProt P97328: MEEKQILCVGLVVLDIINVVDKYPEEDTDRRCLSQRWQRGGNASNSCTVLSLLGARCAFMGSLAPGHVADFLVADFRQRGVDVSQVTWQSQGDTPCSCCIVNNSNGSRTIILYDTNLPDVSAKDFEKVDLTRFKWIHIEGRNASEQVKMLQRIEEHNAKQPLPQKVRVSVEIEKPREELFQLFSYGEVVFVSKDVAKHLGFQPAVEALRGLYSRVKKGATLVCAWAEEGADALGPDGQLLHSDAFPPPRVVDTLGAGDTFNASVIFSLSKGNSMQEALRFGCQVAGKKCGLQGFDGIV
UniProt P97355: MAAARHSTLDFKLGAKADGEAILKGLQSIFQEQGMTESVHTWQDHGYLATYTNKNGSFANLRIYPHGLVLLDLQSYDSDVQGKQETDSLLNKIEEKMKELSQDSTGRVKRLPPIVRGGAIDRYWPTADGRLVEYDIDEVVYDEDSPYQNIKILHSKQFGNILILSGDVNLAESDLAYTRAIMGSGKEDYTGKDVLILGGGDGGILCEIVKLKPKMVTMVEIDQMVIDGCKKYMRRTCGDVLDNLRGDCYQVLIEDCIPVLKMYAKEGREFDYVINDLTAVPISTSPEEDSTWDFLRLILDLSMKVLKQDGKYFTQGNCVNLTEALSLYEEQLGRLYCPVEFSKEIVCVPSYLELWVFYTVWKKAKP
UniProt P70460: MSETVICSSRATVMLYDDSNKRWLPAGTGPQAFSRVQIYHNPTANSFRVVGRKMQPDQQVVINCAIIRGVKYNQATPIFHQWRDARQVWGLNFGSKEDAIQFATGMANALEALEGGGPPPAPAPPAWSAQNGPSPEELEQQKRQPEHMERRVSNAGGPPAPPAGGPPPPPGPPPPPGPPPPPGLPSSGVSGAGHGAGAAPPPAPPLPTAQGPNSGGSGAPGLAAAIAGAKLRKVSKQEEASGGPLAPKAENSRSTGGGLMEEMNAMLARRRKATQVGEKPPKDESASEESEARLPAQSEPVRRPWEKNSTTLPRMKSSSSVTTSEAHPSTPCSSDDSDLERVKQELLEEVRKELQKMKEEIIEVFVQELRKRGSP
UniProt P63101: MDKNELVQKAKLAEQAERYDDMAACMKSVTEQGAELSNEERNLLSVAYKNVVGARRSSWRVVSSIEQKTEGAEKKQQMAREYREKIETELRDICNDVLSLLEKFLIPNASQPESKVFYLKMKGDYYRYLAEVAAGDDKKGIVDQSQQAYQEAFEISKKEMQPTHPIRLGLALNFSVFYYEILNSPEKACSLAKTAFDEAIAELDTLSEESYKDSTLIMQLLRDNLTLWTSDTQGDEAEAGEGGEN
UniProt P57746, whole entry: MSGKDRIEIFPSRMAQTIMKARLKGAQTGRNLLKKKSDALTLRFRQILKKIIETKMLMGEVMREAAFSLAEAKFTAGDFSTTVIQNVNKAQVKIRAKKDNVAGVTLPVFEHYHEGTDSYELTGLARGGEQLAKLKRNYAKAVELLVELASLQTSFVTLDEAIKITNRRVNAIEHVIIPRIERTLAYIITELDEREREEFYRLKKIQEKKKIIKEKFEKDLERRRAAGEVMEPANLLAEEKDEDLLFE
UniProt P62962, whole entry: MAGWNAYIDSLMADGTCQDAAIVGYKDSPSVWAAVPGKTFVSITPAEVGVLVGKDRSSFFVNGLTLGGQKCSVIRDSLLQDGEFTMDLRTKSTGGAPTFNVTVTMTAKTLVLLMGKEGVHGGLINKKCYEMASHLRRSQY
UniProt P61458: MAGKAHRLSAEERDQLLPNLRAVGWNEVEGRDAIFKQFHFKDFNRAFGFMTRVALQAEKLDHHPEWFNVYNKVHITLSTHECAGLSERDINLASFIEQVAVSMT
UniProt P70318: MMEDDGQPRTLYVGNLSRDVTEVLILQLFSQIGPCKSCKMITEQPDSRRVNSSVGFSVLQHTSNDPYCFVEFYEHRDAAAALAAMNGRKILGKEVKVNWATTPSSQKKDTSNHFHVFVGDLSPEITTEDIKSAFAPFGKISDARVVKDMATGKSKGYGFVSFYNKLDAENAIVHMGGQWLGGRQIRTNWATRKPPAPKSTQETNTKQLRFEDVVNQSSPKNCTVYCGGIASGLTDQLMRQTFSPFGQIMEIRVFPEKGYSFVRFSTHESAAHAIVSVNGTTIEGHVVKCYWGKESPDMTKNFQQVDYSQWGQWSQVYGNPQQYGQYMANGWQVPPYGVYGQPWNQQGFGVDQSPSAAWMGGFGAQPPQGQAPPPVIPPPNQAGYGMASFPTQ
UniProt P97298: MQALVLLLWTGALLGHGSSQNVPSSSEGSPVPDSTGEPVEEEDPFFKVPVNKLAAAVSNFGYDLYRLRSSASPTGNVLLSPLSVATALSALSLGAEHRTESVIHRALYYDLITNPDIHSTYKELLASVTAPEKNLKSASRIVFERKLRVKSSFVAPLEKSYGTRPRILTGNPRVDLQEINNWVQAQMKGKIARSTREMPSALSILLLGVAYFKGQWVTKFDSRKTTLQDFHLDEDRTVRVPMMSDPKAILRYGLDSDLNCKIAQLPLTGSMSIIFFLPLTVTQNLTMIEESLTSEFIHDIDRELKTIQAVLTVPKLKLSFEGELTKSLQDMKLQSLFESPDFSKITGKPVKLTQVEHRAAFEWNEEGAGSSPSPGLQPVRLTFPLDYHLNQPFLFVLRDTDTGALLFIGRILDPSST
UniProt P60840: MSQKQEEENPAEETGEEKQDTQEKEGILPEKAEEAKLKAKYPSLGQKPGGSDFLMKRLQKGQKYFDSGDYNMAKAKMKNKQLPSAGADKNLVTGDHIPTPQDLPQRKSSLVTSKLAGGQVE
UniProt P59222: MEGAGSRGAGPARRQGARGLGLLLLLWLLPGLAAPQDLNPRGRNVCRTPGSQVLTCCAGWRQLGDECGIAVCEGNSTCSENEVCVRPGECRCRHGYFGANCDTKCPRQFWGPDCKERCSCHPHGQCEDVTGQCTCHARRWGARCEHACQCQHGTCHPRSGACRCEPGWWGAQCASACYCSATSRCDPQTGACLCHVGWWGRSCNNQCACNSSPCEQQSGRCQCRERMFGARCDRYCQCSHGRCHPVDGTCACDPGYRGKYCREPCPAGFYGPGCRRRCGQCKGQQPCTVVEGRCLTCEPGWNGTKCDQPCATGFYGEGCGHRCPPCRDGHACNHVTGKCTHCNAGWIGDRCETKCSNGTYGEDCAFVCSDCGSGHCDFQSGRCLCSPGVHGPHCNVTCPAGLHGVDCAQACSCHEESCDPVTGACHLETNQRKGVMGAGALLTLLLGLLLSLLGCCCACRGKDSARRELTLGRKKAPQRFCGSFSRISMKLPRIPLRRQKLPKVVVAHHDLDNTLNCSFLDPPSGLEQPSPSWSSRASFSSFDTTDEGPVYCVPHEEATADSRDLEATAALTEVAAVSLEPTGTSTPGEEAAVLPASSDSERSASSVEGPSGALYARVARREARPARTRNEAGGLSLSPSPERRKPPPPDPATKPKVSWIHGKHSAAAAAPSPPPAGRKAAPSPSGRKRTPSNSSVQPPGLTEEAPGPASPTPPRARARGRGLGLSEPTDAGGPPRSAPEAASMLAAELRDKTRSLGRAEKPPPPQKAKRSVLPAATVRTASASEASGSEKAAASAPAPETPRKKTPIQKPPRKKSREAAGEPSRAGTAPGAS
UniProt P70255, whole entry: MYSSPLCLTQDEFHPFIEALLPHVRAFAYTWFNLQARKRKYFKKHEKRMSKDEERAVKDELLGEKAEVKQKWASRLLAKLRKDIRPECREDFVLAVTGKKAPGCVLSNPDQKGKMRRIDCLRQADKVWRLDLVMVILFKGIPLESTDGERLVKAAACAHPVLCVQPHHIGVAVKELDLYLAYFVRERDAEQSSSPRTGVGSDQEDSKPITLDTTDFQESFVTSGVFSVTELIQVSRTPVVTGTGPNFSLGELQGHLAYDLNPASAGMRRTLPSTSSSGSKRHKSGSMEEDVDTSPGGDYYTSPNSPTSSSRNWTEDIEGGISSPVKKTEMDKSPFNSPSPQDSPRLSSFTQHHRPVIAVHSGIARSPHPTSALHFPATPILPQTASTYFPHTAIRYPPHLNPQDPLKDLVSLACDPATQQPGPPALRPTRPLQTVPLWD
UniProt P70245: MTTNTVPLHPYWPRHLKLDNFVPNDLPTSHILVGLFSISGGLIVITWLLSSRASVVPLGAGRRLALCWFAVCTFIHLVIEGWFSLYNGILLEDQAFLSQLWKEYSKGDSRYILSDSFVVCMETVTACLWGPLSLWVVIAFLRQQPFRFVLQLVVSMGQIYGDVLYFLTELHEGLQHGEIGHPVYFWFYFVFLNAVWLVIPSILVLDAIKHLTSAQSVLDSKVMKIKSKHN
UniProt P97300: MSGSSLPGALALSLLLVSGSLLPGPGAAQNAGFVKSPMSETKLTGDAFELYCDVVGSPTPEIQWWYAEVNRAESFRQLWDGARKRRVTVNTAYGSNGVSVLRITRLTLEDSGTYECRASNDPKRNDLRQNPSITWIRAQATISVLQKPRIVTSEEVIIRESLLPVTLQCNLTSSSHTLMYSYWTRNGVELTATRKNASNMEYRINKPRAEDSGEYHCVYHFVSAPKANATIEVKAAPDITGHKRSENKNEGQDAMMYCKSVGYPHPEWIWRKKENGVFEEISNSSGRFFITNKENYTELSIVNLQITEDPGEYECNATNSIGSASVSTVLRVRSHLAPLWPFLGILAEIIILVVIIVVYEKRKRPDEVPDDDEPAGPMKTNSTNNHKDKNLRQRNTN
UniProt P80314: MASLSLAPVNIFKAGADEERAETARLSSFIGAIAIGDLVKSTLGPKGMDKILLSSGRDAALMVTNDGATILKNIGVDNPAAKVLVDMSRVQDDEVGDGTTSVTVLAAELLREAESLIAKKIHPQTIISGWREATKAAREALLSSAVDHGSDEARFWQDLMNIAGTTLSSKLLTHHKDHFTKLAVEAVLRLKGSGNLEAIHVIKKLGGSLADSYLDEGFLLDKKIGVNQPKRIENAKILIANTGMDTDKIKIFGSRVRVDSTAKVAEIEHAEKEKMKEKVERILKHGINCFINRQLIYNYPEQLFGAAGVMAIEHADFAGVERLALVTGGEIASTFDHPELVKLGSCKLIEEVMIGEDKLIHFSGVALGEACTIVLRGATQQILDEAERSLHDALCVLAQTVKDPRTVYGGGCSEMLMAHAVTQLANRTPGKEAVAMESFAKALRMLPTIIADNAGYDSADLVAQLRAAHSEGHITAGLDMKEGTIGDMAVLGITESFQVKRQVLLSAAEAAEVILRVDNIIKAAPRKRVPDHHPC
UniProt P57776: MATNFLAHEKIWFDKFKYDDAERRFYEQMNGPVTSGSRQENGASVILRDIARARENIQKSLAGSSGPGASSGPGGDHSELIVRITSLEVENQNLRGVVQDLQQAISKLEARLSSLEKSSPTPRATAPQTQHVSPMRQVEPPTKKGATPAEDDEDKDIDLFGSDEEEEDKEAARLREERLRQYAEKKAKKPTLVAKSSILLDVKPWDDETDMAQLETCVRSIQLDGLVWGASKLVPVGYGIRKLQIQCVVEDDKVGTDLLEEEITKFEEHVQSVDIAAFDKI
UniProt P97450: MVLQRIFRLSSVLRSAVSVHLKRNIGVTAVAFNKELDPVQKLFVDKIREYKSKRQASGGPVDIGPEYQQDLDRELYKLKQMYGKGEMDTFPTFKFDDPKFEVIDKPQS

| Target | log2 fold change of pooled soluble protein |
| --- | --- |
| UniProt P58929 | -0.289 |
| UniProt P58283 | -0.152 |
| UniProt P97501 | -0.037 |
| P63271;Q9Z199 | -0.243 |
| UniProt P70362 | -0.0664 |
| UniProt P58801 | -0.0677 |
| UniProt P97328 | -0.00799 |
| UniProt P70372 | -0.151 |
| UniProt P97355 | -0.0914 |
| UniProt P70460 | -0.122 |
| UniProt P60670 | -0.0142 |
| UniProt P63101 | -0.139 |
| UniProt P57746 | 0.0638 |
| UniProt P70665 | -0.0217 |
| UniProt P62962 | -0.153 |
| UniProt P97499 | -0.0364 |
| UniProt P61458 | 0.0968 |
| UniProt P70318 | -0.0218 |
| UniProt P97298 | 0.0678 |

| Target | log2 fold change of pooled soluble protein |
| --- | --- |
| UniProt P60840 | -0.000354 |
| UniProt P59325 | -0.0654 |
| UniProt P61028 | -0.0612 |
| UniProt P70704 | 0.17 |
| UniProt P59222 | 0.0974 |
| UniProt P60904 | -0.0555 |
| UniProt P70255 | -0.00138 |
| P60710;P63260 | -0.107 |
| UniProt P70245 | 0.293 |
| UniProt P97300 | 0.304 |
| UniProt P80317 | 0.0195 |
| UniProt P80314 | 0.0181 |
| UniProt P57776 | -0.0555 |
| UniProt P70399 | -0.0608 |
| UniProt P63017 | -0.114 |
| UniProt P58771 | -0.0853 |
| UniProt P97461 | -0.0749 |
| UniProt P97450 | 0.148 |

7 neighbouring records from above:

| Target | log2 fold change of pooled soluble protein |
| --- | --- |
| UniProt P70704 | 0.17 |
| UniProt P59222 | 0.0974 |
| UniProt P60904 | -0.0555 |
| UniProt P70255 | -0.00138 |
| P60710;P63260 | -0.107 |
| UniProt P70245 | 0.293 |
| UniProt P97300 | 0.304 |
